Experimental data from patent US8431529B2, “Bi-dentate compounds as kinase inhibitors” (Sanford-Burnham Medical Research Institute, priority 2007, dated 2013).
Structures were worked out from names or drawings and are uncertain.

Protein sequences, listed by entry. Tags and fused reporters are not part of them.
UniProt P45983, whole entry: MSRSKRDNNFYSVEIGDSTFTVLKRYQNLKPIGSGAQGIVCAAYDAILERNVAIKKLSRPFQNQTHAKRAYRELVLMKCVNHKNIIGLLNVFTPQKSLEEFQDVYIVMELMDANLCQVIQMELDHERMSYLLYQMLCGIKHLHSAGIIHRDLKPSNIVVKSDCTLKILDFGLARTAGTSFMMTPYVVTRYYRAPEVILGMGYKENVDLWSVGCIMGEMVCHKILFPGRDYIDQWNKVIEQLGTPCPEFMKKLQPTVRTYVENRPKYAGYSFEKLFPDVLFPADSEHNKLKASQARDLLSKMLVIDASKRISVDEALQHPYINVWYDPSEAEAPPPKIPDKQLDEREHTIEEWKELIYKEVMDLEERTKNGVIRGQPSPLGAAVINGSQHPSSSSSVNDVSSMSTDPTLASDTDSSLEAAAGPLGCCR
UniProt Q16539, whole entry: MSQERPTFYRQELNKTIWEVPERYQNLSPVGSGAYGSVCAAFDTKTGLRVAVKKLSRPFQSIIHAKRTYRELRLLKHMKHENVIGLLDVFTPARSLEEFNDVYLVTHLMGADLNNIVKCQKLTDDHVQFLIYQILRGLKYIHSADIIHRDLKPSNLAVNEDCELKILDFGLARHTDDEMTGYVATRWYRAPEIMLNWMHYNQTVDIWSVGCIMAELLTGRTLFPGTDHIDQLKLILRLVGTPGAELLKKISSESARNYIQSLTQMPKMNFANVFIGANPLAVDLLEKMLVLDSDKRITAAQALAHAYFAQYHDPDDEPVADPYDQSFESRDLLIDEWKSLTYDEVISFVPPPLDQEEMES

Assays:
JNK1 [1] = target: T1, JNK1 (Homo sapiens, UniProt P45983); assay: DELFIA assay: displacement of biotinylated pepJIP1 (L-JIP1 peptide) from GST-JNK1; format: binding; conditions: read-out: Delfia Assay (Displacement of L-JIP1 peptide from JNK) IC50; Table 1
JNK1 [2] = target: T1, JNK1; assay: LanthaScreen TR-FRET in vitro kinase activity assay, JNK1 phosphorylation of ATF2; format: biochemical; conditions: read-out: Kinase Activity Assay (JNK) IC50; Table 1
p38α = p38α (Homo sapiens, UniProt Q16539); assay: LanthaScreen kinase activity assay with ATF2 substrate versus p38α; format: biochemical; conditions: read-out: Kinase Activity Assay (p38[…]) IC50; Table 1
Procedure: In order to confer further favorable pharmacological properties to this compound for in vivo studies, analogous to the clinical candidate D-JNK1^15, an all-D retro-inverso version of BI77B8 fused to the cell penetrating HIV-TAT sequence was prepared. […] LanthaScreen™ In vitro Kinase Assay. LanthaScreen™ assay platform from Invitrogen was utilized. The time-resolved fluorescence resonance energy transfer assay (TR-FRET) was performed in 384 well plates. […] After this time, the terbium labeled antibody and EDTA were added into each well. After an additional hour incubation, the signal was measured at 520/495 nm emission ratio on a BMG Pherastar fluorescence plate reader.

CC(C)C[C@H](NC(=O)[C@H](CC(N)=O)NC(=O)[C@H](CC(C)C)NC(=O)[C@@H](NC(=O)[C@@H](NC(=O)[C@@H]1CCCN1C(=O)[C@@H](N)CCCNC(=N)N)[C@@H](C)O)[C@@H](C)O)C(=O)NCC(=O)NCC(=O)NCCCNC(=O)c1ccc(-c2n[nH]c3ccccc23)cc1
IC50 (JNK1 [1]): 2 nM | IC50 (JNK1 [2]): 0.7 nM | IC50 (p38α): 190 nM
